# Test results published in PMC4947123.
# Amino acid sequences for entries named in this document (tags omitted). A change or cut given only in a name is not applied to a line headed by its entry.
# UniProt P35637: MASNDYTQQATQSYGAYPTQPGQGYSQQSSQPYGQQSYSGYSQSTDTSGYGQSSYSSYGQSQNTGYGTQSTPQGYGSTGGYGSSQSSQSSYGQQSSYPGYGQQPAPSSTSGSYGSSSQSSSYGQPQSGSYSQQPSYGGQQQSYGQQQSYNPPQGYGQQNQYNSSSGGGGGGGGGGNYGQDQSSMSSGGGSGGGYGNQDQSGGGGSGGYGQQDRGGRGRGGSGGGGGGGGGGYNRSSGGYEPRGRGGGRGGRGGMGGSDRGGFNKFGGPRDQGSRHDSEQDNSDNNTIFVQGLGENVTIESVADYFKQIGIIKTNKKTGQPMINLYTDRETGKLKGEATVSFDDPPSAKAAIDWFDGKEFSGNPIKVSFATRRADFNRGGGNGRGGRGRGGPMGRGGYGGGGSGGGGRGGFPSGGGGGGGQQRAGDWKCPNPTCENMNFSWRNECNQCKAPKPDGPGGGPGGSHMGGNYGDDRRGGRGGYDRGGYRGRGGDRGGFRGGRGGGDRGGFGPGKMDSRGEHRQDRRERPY
# UniProt Q96CV9: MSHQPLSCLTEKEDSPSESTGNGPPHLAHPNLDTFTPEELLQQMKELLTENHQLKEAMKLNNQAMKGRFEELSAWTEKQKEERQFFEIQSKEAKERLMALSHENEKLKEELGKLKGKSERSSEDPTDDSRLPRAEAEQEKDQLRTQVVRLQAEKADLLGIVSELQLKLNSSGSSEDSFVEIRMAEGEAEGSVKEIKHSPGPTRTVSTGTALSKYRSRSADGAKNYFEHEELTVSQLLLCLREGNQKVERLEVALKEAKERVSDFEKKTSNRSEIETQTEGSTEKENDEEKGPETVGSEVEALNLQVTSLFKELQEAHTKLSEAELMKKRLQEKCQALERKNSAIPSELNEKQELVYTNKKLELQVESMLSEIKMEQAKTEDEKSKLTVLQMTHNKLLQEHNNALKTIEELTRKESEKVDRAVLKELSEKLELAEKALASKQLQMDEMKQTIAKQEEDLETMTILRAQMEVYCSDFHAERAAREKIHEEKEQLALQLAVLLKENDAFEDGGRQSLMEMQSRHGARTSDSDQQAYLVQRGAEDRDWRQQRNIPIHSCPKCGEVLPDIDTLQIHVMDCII
# How the values were obtained:
# [1] = biological target: bioGFP-tagged FUS R521C (human) (UniProt P35637); test: affinity purification with mass spectrometry; bioGFP-tagged bait co-transfected with BirA in N2A cells; captured from lysate with magnetic streptavidin beads; gel, LC-MS/MS, MaxQuant, PERSEUS, Welch's t test with FDR 0.01 and S0 1.5, triplicate, against GFP or wild type
# [2] = biological target: bioGFP-tagged FUS wild-type (human) (UniProt P35637); test: as above
# [3] = biological target: bioGFP-tagged TDP-43 M337V (UniProt Q13148); test: as above
# [4] = biological target: bioGFP-tagged TDP-43 wild-type (UniProt Q13148); test: as above
# [5] = biological target: bioGFP-tagged OPTN wild-type (UniProt Q96CV9); test: affinity purification with mass spectrometry
Binder,binding [1],binding [2],binding [3],binding [4],binding [5]
"Caprin1 (protein, UniProt Q60865 1-707) MPSATSHSGSGSKSSGPPPPSGSSGSEAAAGAAAPASQHPATGTGAVQTEAMKQILGVIDKKLRNLEKKKGKLDDYQERMNKGERLNQDQLDAVSKYQEVTNNLEFAKELQRSFMALSQDIQKTIKKTARREQLMREEAEQKRLKTVLELQYVLDKLGDDDVRTDLKQGLSGVPILSEEELSLLDEFYKLVDPERDMSLRLNEQYEHASIHLWDLLEGKEKPVCGTTYKALKEIVERVFQSNYFDSTHNHQNGLCEEEEAASAPTVEDQVAEAEPEPAEEYTEQSEVESTEYVNRQFMAETQFSSGEKEQVDEWTVETVEVVNSLQQQPQAASPSVPEPHSLTPVAQSDPLVRRQRVQDLMAQMQGPYNFIQDSMLDFENQTLDPAIVSAQPMNPTQNMDMPQLVCPQVHSESRLAQSNQVPVQPEATQVPLVSSTSEGYTASQPLYQPSHATEQRPQKEPMDQIQATISLNTDQTTASSSLPAASQPQVFQAGTSKPLHSSGINVNAAPFQSMQTVFNMNAPVPPANEPETLKQQSQYQATYNQSFSSQPHQVEQTELQQDQLQTVVGTYHGSQDQPHQVPGNHQQPPQQNTGFPRSSQPYYNSRGVSRGGSRGARGLMNGYRGPANGFRGGYDGYRPSFSNTPNSGYSQSQFTAPRDYSGYQRDGYQQNFKRGSGQSGPRGAPRGRGGPPRPNRGMPQMNTQQVN",binds,binds,binds,binds,
"hnRNPQ (Syncrip) (protein, UniProt Q7TMK9 1-623) MATEHVNGNGTEEPMDTTSAVIHSENFQTLLDAGLPQKVAEKLDEIYVAGLVAHSDLDERAIEALKEFNEDGALAVLQQFKDSDLSHVQNKSAFLCGVMKTYRQREKQGTKVADSSKGPDEAKIKALLERTGYTLDVTTGQRKYGGPPPDSVYSGQQPSVGTEIFVGKIPRDLFEDELVPLFEKAGPIWDLRLMMDPLTGLNRGYAFVTFCTKEAAQEAVKLYNNHEIRSGKHIGVCISVANNRLFVGSIPKSKTKEQILEEFSKVTEGLTDVILYHQPDDKKKNRGFCFLEYEDHKTAAQARRRLMSGKVKVWGNVGTVEWADPIEDPDPEVMAKVKVLFVRNLANTVTEEILEKSFSQFGKLERVKKLKDYAFIHFDERDGAVKAMEEMNGKDLEGENIEIVFAKPPDQKRKERKAQRQAAKNQMYDDYYYYGPPHMPPPTRGRGRGGRGGYGYPPDYYGYEDYYDYYGYDYHNYRGGYEDPYYGYEDFQVGARGRGGRGARGAAPSRGRGAAPPRGRAGYSQRGGPGSARGVRGARGGAQQQRGRGVRGARGGRGGNVGGKRKADGYNQPDTKRRQTNNQNWGSQPIAQQPLQGGDHSGNYGYKSENQEFYQDTFGQQWK",,,binds,binds,

# Continued, values first:
binding [1],binding [2],binding [3],binding [4],binding [5],Binder
binds,binds,,,,"DNA ligase 3 (Lig3) (protein, UniProt P97386 1-1015) MTLAFKILFPRNLCALGRKELCLFPEQNRWAAISQFSQWSETNLLGGCCLLQRRKPVLALQRGHLRPRATHLTFWPGSHVGLCTGPCAMAEQRFCVDYAKRGTAGCKKCKEKIVKGVCRIGKVVPNPFSESGGDMKEWYHIKCMFEKLERARATTKKIEDLTELEGWEELEDNEKEQISQHIADLSSKAAATPKKKAAVQAKLTTTGQVTSPVKGASFITSTNPRKFSGFSAAKPNNSEQAPSSPAPGTSLSASKCDPKHKDCLLREFRKLCAMVAENPSYNTKTQIIHDFLQKGSTGGFSDGFHGDVYLTVKLLLPGVIKSVYNLNDKQIVKLFSRIFNCNPDDMARDLEQGDVSETIRIFFEQSKSFPPAAKSLLTIQEVDAFLLHLSKLTKEDEQQQALQDIASRCTANDLKCIIRLIKHDLKMNSGAKHVLDALDPNAYEAFKASRNLQDVVERVLHNEQEVEKDPGRRRALRVQASLMTPVQPMLAEACKSIEYAMKKCPNGMFSEIKYDGERVQVHKKGDHFSYFSRSLKPVLPHKVAHFKDYIPKAFPGGQSMILDSEVLLIDNNTGKPLPFGTLGVHKKAAFQDANVCLFVFDCIYFNDVSLMDRPLCERRKFLHDNMVEIRNRIMFSEMKQVTKASDLADMINRVIREGLEGLVLKDVKGTYEPGKRHWLKVKKDYLNEGAMADTADLVVLGAFYGQGSKGGMMSIFLMGCYDPDSQKWCTVTKCAGGHDDATLARLQKELVMVKISKDPSKIPSWLKINKIYYPDFIVPDPKKAAVWEITGAEFSRSEAHTADGISIRFPRCTRIRDDKDWKSATNLPQLKELYQLSKDKADFAVVAGDEASPTTGGSSGENEGTAGSAGPCKGPPSKSSASAKTTEQKLNSPSSRGGIKPIPKHSPMKPGEKLAVKSSPVKVGMKRKATDETPCLKKVLLDVFTGVRLYLPPSTPDFKRLKRYFVAFDGDLVQEFDMGSATHVLGNREKNTDAQLVSSEWIWACIRKRRLIAPC"
,,,,binds,"IgE-binding protein (Iap) (protein, UniProt P03975 1-557) MALQVMFGLEFFLVLEALLFLFTCYQVVKAGRILDEIQDKLSEVKRGERVGTKRKYGTQNKYTGLSKGLEPEEKLRLGRNTWREIRRKRGKREKKKDQLAEVSRKRSLCSSLDGLGKPALSSSEAGEESSSEETDWEEEAAHYQPANWSRKKPKAAGEGQFADWPQGSRLQGPPYAESPPCVVRQQCAERCAERQCAERQCADSFIPREEQRKIQQAFPVFEGAEGGRVHAPVEYLQIKEIAESVRKYGTNANFTLVQLDRLAGMALTPADWQTVVKAALPSMGKYMEWRALWHEAAQAQARANAAALTPEQRDWTFDLLTGQGAYSADQTNYHWGAYAQISSTAIRPGRRSRAGETTGQLTKIIQGPQESFSDFVARMTEAAERIFGESEQAAPLIEQLIYEQATKECRAVHSPKKEQRLTRLAQGLSRAWGKPRLLKTDNGPAYTSQKFQQFCRQMDVTHLTGLPYNPQGQGIVERAHRTLKAYLIKQKRGTFEETVPRAPRVSVSLALFTLNFLNIDAHGHTAAERHVQSQIGPMRWLNGKMSLIINGMARILS"

# No constants are given. Whether binding was seen depends on the method and setting. Binding seen in cells or lysates may run through a third protein. A yes stands for co-enrichment or nearness to the bait. Other partners may have been found.
